Results as given in publication PMC7907286.
Results are given in words; binding and its absence hold for the method and conditions named. In cells and extracts the contact can be indirect. Binding can be weak; no strength is given.

What was measured:
[1] = biological target: T1, chicken ovalbumin upstream promoter-factor II (mouse (endogenous in primary myoblasts and C2C12)) (UniProt P43135); test: proximity ligation; Duolink In Situ kit on fixed, permeabilised WT primary myoblasts; primary antibodies for COUP-TFII and THRA overnight at 4 °C; interactions appear as red dots
T1 sequence: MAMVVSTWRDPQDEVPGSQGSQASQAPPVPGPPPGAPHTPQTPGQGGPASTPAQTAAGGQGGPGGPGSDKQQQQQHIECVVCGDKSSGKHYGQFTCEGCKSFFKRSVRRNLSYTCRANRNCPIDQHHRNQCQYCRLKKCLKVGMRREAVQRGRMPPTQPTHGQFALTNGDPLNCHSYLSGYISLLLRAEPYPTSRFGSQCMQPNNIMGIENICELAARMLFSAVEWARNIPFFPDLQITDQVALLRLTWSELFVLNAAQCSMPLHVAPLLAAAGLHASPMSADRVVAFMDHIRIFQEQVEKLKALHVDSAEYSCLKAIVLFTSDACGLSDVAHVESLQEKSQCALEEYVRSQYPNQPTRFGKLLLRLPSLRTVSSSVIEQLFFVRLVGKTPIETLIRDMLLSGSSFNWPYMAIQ

[2] = biological target: T1, chicken ovalbumin upstream promoter-factor II (mouse (endogenous in primary myoblasts and C2C12)); test: co-IP; nuclear proteins of proliferating primary myoblasts (legend: skeletal muscle) from WT and THRA-PV mice; COUP-TFII antibody 2 h at 4 °C, Protein A/G PLUS-Agarose overnight at 4 °C, three washes with PBS; COUP-TFII as bait, THRA detected by western blot
[3] = biological target: T1, chicken ovalbumin upstream promoter-factor II (mouse (endogenous in primary myoblasts and C2C12)); test: co-IP; nuclear proteins of C2C12 myoblasts (CTRL, and after COUP-TFII silencing by siRNA); COUP-TFII antibody, Protein A/G PLUS-Agarose, three washes with PBS; COUP-TFII as bait, THRA detected by western blot

Measured: binding

thyroid nuclear receptor alpha (from UniProt P63058-2)
binds: all assays above
